Source: PMC7072741

Molecular target: GST-CXCR4 (recombinant C-terminus of CXCR4 bound to GST)
Assay: pull-down; His-LASP1 (unphosphorylated or phosphorylated) with the recombinant C-terminus of CXCR4 bound to GST; the paper calls it co-immunoprecipitation; LASP1 forms detected by Western blot; both purified

Row | binding | Binder
1 | binds | His-LASP1 phosphorylated at S146 by the constitutive active C-subunit of PKA (protein, UniProt Q14847 1-261, phosphoserine at 146) MNPNCARCGKIVYPTEKVNCLDKFWHKACFHCETCKMTLNMKNYKGYEKKPYCNAHYPKQSFTMVADTPENLRLKQQSELQSQVRYKEEFEKNKGKGFSVVADTPELQRIKKTQDQISNIKYHEEFEKSRMGPSGGEGMEPERRDSQDGSSYRRPLEQQQPHHIPTSAPVYQQPQQQPVAQSYGGYKEPAAPVSIQRSAPGGGGKRYRAVYDYSAADEDEVSFQDGDTIVNVQQIDDGWMYGTVERTGDTGMLPANYVEAI
2 | no binding | His-LASP1 phosphorylated at Y171 by active Lyn kinase (protein, UniProt Q14847 1-261, phosphotyrosine at 171) MNPNCARCGKIVYPTEKVNCLDKFWHKACFHCETCKMTLNMKNYKGYEKKPYCNAHYPKQSFTMVADTPENLRLKQQSELQSQVRYKEEFEKNKGKGFSVVADTPELQRIKKTQDQISNIKYHEEFEKSRMGPSGGEGMEPERRDSQDGSSYRRPLEQQQPHHIPTSAPVYQQPQQQPVAQSYGGYKEPAAPVSIQRSAPGGGGKRYRAVYDYSAADEDEVSFQDGDTIVNVQQIDDGWMYGTVERTGDTGMLPANYVEAI
3 | no binding | His-LASP1 (unphosphorylated recombinant His-tagged LASP1) (protein, UniProt Q14847 1-261) MNPNCARCGKIVYPTEKVNCLDKFWHKACFHCETCKMTLNMKNYKGYEKKPYCNAHYPKQSFTMVADTPENLRLKQQSELQSQVRYKEEFEKNKGKGFSVVADTPELQRIKKTQDQISNIKYHEEFEKSRMGPSGGEGMEPERRDSQDGSSYRRPLEQQQPHHIPTSAPVYQQPQQQPVAQSYGGYKEPAAPVSIQRSAPGGGGKRYRAVYDYSAADEDEVSFQDGDTIVNVQQIDDGWMYGTVERTGDTGMLPANYVEAI

No constants are given. Whether binding was seen depends on the method and setting. In cells and extracts the contact can be indirect. A result given as binding can be weak or reduced; the word gives no strength. Tags and fused reporters may be left off the sequences shown.
